## Library screening results

Data taken from ChEMBL document CHEMBL3988442, “University of Dundee, Small-Polar-MMV Screening Library” (2021).

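Whole-cell assay for inhibitors of Mycobacterium tuberculosis growth, labelled Cornell in the record; the read-out is not stated. The concentration is filed as 10 mM, unlikely as a test dose, so the dose is not known. Higher means stronger inhibition (inferred from two other growth screens of the library). Of about 53,000 compounds tested this way, about 900 (1.7%) reached 50% or more in at least one test.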

The filed quantity is “Percent Effect” (%).
The record does not define 0% and 100%; most values in the screen are far below 50% and negative numbers occur (in some assays of this library far below -100).
The compounds are a random part of those screened.

SMILES,Percent Effect
CC(c1cccc(Cl)c1)N(C)CCS(=O)(=O)CCC(N)=O (centres unmarked),-36.13
CC(=O)N1CCC(Cc2cnc(-c3c(C)n[nH]c3C)cn2)CC1,-48.66
[H][C@@]12COC[C@]1(C(=O)NCCc1cccs1)CN(S(C)(=O)=O)C2,-0.009434
CC(C)N(C)C(=O)C1=NOC2(CCN(C(=O)c3ccccn3)C2)C1 (centres unmarked),2.643
COc1ccccc1N1CCN(C(=O)CCn2nnnc2C)CC1(C)C,6.647
CC(CNC(=O)OC(C)(C)C)N(C)C(=O)COc1ccccc1C#N (centres unmarked),17.42
CC(C)n1nnnc1-c1ccc(NC(=O)CCC(F)(F)F)cc1F,1.504
CCOc1ccc(NC(=O)NCC(C)(O)c2cccs2)cc1 (centres unmarked),-59.42
Cc1ccc(N2CCCc3sc(C(=O)NCC4CCCO4)nc32)nn1 (centres unmarked),-12.55
O=C(c1nc(Cc2c[nH]c3ccccc23)no1)N1CCOCC1,15.76
CNC(=O)CN1CCOCC2(CN(CCC(F)(F)F)CCO2)C1.O=C(O)C(F)(F)F.O=C(O)C(F)(F)F (centres unmarked),-0.6476
O=C(NCc1ccccc1)N1CCC(Oc2ncccc2Cl)CC1,-18.04
Cc1cccc(C(=O)N2CCN(CCOC(C)C)CC2)n1,12.94
CCn1cnnc1CNC(=O)N(C)Cc1ccccc1OC,37.24
CCNc1nc(-c2cccnc2)c(-c2ccnc(NCCO)n2)s1,15.79
CC1c2ncc(Cn3cncn3)n2CCN1C(=O)C1CCOCC1 (centres unmarked),23.95
Cc1n[nH]c(C2CN(CCNC3CCCCC3)CCO2)n1 (centres unmarked),10.35
Cn1cc(CN2CCc3c(COCc4ccncc4)cncc3C2)cn1,-33.56
CN(CCO)C[C@@H]1CN(Cc2ccccc2C#N)C[C@@H]1CO,37.91
O=C1CC(c2ccncc2)c2c(sc3c2CCCC3)N1 (centres unmarked),9.255
CCN(CC)C(=O)CNS(=O)(=O)c1cc(Br)ccc1F,2.964
CC(C)OCCS(=O)(=O)c1ccccc1C#N,5.571
CCN(CC)c1ncnc2c1CCN(C(=O)Cc1ccccn1)CC2.O=C(O)C(F)(F)F.O=C(O)C(F)(F)F,15.45
COc1c(CNCc2ccc(N3CCOCC3)nc2)c(C)nn1C,-1.052
CN1CCCN(c2ncnc(N3CCOCC3)c2N)CC1,-9.936
N#Cc1ccc(S(=O)(=O)N2CSCC2C(=O)NCC(F)(F)F)cc1 (centres unmarked),4.6
CC(C)(C)OCCN(Cc1cccc(O)c1)C1CCC(O)CC1 (centres unmarked),-6.328
O=C(c1ccn(-c2ccc(F)cc2)n1)N(CCO)Cc1cccnc1,-0.672
CO[C@H]1CN(C(=O)OC(C)(C)C)CC1NCc1ccn(C)c1 (some centres unmarked),21.41
CC(C)(C)n1cc(CNC2CCN(C(=O)c3ccncc3)CC2)cn1,7.951
CCC(C)(CCO)NC(=O)c1ccon1 (centres unmarked),-22.18
O=C(NS(=O)(=O)c1cc(Cl)sc1Cl)c1cccc2c1OCCO2,1.673
CCc1ccccc1C(=O)N1CCCC1CC(=O)c1cnn(C)c1 (centres unmarked),-9.682
Cc1cccc(NS(=O)(=O)c2cc3c(c(C(=O)O)c2)OCCO3)c1,-3.509
CNC(=O)C1(c2cnccn2)CCCN1C(=O)c1cccc(C)n1 (centres unmarked),-23.02
O=C(N1CCCC(n2cncn2)C1)C1(c2cccc(F)c2)CC1 (centres unmarked),-3.686
Cc1ccc2c(c1)CCC2NCc1c(C)nn(CCO)c1C.Cl (centres unmarked),3.576
Cc1nc(-c2nnc[nH]2)sc1C(=O)N1CCCC1c1ccsc1 (centres unmarked),11.81
Cc1ccc(S(=O)(=O)N2CCOCC2C#N)cc1Br (centres unmarked),-17.41
CCc1noc(CN(C)C(=O)C2COc3ccccc3C2)n1 (centres unmarked),23.26
O=C(CC1CCCO1)Nc1ccc2c(ccn2CCN2CCOCC2)c1 (centres unmarked),-11.05
OC(CNCCn1cccn1)c1cccc(Br)c1 (centres unmarked),14.51
O=S(=O)(N1CCCCC1)N1CCOC2(CCCC2)C1,33
COC(CNC(=O)c1cc(C)on1)c1ccccc1C (centres unmarked),-1.465
c1csc(-c2nnc(CSCCN3CCOCC3)o2)c1,29.76
COCCC1(CNC(=O)NCC2CN(C)CCN2C)CCC1 (centres unmarked),-10.57
COCCN1CCCC2(CCN(c3ccsc3)C2=O)C1.O=C(O)C(F)(F)F (centres unmarked),10.01
CN(C)c1nccc(NCc2cc(-c3ccco3)n[nH]2)n1,37.45
CC(C)(C)NC(=O)CNC(=O)CCc1ccccc1Br,-37.21
CCC(=O)N1CCCCC1c1nc(O)c2c(n1)CN(S(=O)(=O)CC)CC2 (centres unmarked),9.253
CCCN(Cc1ccccc1)Cn1nc(C)c2c(C)onc2c1=O,-7.687
COCCOc1ccc(-c2noc([C@@H]3CCCN3C3CCC3)n2)cn1,19.28
O=C(O)C(F)(F)F.[H][C@]12CCNCC[C@@]1([H])S(=O)(=O)N(CCc1cccc(OC)c1)C2,7.133
O=C(c1cc(=O)c(OCc2ccccc2)co1)N1CCSCC1,-11.38
CN(C)Cc1nc2c(o1)CN(S(=O)(=O)c1cccs1)C2.O=C(O)C(F)(F)F,-8.554
[H][C@@]12C[C@@H](OCc3ccccc3)C[C@]1([H])CN(Cc1cnc(C)nc1)C2,-20.64
O=C1CCC2(CCOC2)CN1Cc1nc2ccc(Cl)cc2[nH]1 (centres unmarked),6.238
c1cn(-c2ccc(N3CCC(NC4CC4)CC3)cc2)cn1,27.2
CCN(CC)c1ccc(CNC(=O)c2ccccn2)cn1,-33.86
CCOCCn1c(=O)[nH]c2cc(C(=O)N(C)Cc3ccno3)ccc21,-14.26
O=C(O)C(F)(F)F.O=C(O)C(F)(F)F.c1cnc(N2CCOC3(CCCN(c4cnccn4)C3)C2)nc1 (centres unmarked),2.323
CC(C(=O)N1CCCC1)n1nc(-c2cccs2)cc(N)c1=O (centres unmarked),-4.196
O=C(Cc1csc(-c2ccccc2F)n1)NCc1cccc(C(=O)O)c1,10.14
O=C(C1CC1)N1CCC2(CCN2Cc2ccc(F)cc2)C1.O=C(O)C(F)(F)F (centres unmarked),2.141
Cc1cccc(-c2ncc(CNC(C)Cc3ncccc3C)cn2)c1 (centres unmarked),-10.78
Cc1cc(N2CCCC2(C)c2nc(C)cc(C(=O)N(C)C)n2)ncn1 (centres unmarked),-25.51
[H][C@@]12C[C@H](O)CCN1C(=O)CN(CCSC(C)(C)C)C2=O,-12.11
O=C(O)C(F)(F)F.O=C(O)C(F)(F)F.O=C(O)C(F)(F)F.[H][C@@]12CCCO[C@]1([H])[C@H](N(CC)CC)CN2Cc1nccn1C,31.14
CC(=O)c1ccc(S(=O)(=O)N2CCC(c3n[nH]c(C)n3)CC2)cc1,-25.68
CCOC(=O)CNC(=O)NCc1cccn1Cc1ccc(F)cc1,15.69
Cc1cccc(CN2CCC3(CC(C(=O)NCC(C)C)=NO3)C2)c1 (centres unmarked),-32.93
CS(=O)(=O)N(Cc1ccon1)c1cccc(Br)c1,4.518
Cc1cc(C(F)(F)F)cc(N2C[C@@H](CN3CCOCC3)[C@@H](CO)C2)n1,15.44
COCCOCC(=O)NC(C#N)c1ccccc1C (centres unmarked),23.1
CSC(C)CCN1CCC(n2cc(C3CCCCC3)nn2)CC1 (centres unmarked),-5.077
COCCNC(=O)C1CN(Cc2cccnc2)Cc2ccnn2C1.O=C(O)C(F)(F)F.O=C(O)C(F)(F)F.O=C(O)C(F)(F)F (centres unmarked),2.745
COCC(C)(C)NC(=O)CC(c1ccccc1)C(F)(F)F (centres unmarked),12
CC(=O)N(C)Cc1cncc(C2CCCN2C2CCOCC2)n1 (centres unmarked),20.83
Cc1nn(C)cc1C1CC(=O)Nc2c1cnn2C(C)C (centres unmarked),1.43
Cc1cc(C(=O)N2CCC[C@]3(C[C@H](OCC4CC4)CO3)C2)no1,-1.409
O=C1CC(c2cccs2)c2sc(C(=O)O)c(-c3ccccc3)c2N1 (centres unmarked),-9.658
O=C(Cn1cccn1)NCC(c1cccs1)N1CCCC1 (centres unmarked),-27.57
Cc1noc(C2CCN(C(=O)c3cc(Br)ccc3F)CC2)n1,14.62
O=C(O)C(F)(F)F.[H][C@@]12CCN(Cc3c(C)noc3C)C[C@]1(C(=O)NC1CCCC1)CCO2,5.449
O=C(O)C(F)(F)F.O=C(O)C(F)(F)F.[H][C@@]12CCN(c3ccccc3)C[C@]1([H])[C@H](C(=O)Nc1cccnc1C)CCO2,2.746
O=C(O)C(F)(F)F.[H][C@@]12CN(Cc3csc(C)n3)C[C@]1([H])CN(C(=O)c1cnccn1)C2,-2.237
CCc1nc(C(=O)N(CC)CC(=O)Nc2cc(Cl)ccc2C)c[nH]1,22.56
COCCN1CCc2ccc(=O)n(Cc3csc(C)n3)c2CC1.O=C(O)C(F)(F)F.O=C(O)C(F)(F)F,23.15
CSc1ccc(C(=O)N2CC(=O)N(Cc3cccs3)CC(O)C2)cc1 (centres unmarked),3.812
c1ncn(Cc2nnc(C3CCN(C4CCOCC4)CC3)n2C2CC2)n1,-31.8
Fc1ccc(-c2nnc(CN3CCOC(Cn4cncn4)C3)o2)cc1 (centres unmarked),20.66
O=C(NCCn1nc2ccccn2c1=O)c1cc[nH]n1,-8.293

Some entries from above, unchanged:

SMILES	Percent Effect
Cc1cccc(C(=O)N2CCN(CCOC(C)C)CC2)n1	12.94
N#Cc1ccc(S(=O)(=O)N2CSCC2C(=O)NCC(F)(F)F)cc1 (centres unmarked)	4.6
CN(C)c1nccc(NCc2cc(-c3ccco3)n[nH]2)n1	37.45
CCN(CC)c1ccc(CNC(=O)c2ccccn2)cn1	-33.86
CC(c1cccc(Cl)c1)N(C)CCS(=O)(=O)CCC(N)=O (centres unmarked)	-36.13
CC(C)OCCS(=O)(=O)c1ccccc1C#N	5.571
CCc1ccccc1C(=O)N1CCCC1CC(=O)c1cnn(C)c1 (centres unmarked)	-9.682
COCCOc1ccc(-c2noc([C@@H]3CCCN3C3CCC3)n2)cn1	19.28